Source: PubChem BioAssay AID651768 (National Center for Advancing Translational Sciences (NCATS), 2012)
About 1,700 (0.47%) of roughly 360,000 compounds were called active. Inconclusive results, whose numbers are uncertain, are shown with a selection of clear calls. Calls follow the shape of the dose curve; as a rule, active = well fitted inhibition curve with a large enough effect; inconclusive = small, poorly fitted or top-dose-only effect; inactive = no such curve, though single readings can be large or run the other way. Potencies beside an inconclusive call are fits to weak or partial responses and may not hold up.

Amino acid sequences for entries named in this document (tags omitted).
UniProt Q14191, whole entry, looked up: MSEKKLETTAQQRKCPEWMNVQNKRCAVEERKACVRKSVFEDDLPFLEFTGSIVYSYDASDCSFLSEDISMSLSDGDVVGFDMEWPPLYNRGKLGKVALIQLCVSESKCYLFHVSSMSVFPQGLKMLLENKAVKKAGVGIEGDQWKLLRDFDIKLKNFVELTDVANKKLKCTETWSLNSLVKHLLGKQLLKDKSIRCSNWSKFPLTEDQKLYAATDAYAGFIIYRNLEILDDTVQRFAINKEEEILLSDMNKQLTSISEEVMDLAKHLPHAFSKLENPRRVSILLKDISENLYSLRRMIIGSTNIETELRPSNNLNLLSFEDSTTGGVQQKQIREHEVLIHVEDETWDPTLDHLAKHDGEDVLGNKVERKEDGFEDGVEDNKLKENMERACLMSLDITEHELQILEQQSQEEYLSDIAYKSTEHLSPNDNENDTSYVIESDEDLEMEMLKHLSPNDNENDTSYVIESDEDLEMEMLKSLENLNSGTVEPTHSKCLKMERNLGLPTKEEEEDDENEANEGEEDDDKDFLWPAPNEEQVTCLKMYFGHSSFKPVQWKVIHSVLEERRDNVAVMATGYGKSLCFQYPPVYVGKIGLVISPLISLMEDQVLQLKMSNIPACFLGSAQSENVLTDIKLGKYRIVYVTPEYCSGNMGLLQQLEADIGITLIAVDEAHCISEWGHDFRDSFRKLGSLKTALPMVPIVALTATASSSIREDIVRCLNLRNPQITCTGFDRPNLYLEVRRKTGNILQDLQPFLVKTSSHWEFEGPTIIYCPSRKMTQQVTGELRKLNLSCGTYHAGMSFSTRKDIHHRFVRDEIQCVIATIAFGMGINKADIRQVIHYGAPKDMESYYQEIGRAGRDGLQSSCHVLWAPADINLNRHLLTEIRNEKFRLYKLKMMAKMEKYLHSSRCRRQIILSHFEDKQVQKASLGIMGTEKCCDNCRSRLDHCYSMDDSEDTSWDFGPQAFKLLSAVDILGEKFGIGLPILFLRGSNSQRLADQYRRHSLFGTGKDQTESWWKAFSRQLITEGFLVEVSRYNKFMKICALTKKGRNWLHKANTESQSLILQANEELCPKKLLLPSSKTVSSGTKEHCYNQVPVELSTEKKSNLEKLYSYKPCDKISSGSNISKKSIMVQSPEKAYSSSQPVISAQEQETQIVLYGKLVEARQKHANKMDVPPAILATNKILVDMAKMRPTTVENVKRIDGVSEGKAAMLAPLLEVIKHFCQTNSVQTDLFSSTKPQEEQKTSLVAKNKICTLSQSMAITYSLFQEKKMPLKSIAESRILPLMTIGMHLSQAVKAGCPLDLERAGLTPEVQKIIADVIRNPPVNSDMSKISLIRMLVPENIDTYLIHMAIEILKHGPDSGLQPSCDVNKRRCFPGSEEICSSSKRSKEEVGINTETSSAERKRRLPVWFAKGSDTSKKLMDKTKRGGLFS

Each compound was assayed against Bifunctional 3'-5' exonuclease/ATP-dependent helicase WRN (Homo sapiens) (UniProt Q14191) (assay: qHTS for Inhibitors of WRN Helicase). Conditions: WRN helicase unwinding, fluorescent forked duplex, kinetic; series mostly up to 114 µM.
Procedure, shortened: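 Enzyme (20 nM final) and test compound sit together 15 min at room temperature before substrate addition. Substrate is a single-forked duplex oligonucleotide (100 nM) labelled with fluorophore and quencher, with 2 mM ATP; helicase unwinding raises red fluorescence, read kinetically.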
Also: nearly all actives have a fitted effect of over 55% in size.
Potency is read from the fitted curve at half-maximal effect.

| Structure (SMILES) | Potency |
| --- | --- |
| O=C(c1ccccn1)N1CCN(S(=O)(=O)c2ccc3ccccc3c2)CC1 | inconclusive: 89.1 µM [inhibitor, single point] |
| Cc1ccc(NC(=O)CSc2ccc(C(N)=O)cc2[N+](=O)[O-])cc1C | inconclusive: 79.4 µM [inhibitor, single point] |
| CC(C)(C)NC(=O)C(c1c[nH]c2ccccc12)N(C(=O)Cn1nnc(-c2ccc(F)cc2)n1)c1cccc(O)c1 (centres undefined) | inactive |
| O=C(O)c1cc([N+](=O)[O-])c(Sc2nc3ccccc3[nH]2)c([N+](=O)[O-])c1 | inconclusive: 35.5 µM [inhibitor, partial curve] |
| Cc1c(NC(=S)NC(=O)c2ccco2)cccc1-c1nc2ncccc2o1 | inconclusive: 22.4 µM [inhibitor, full curve] |
| COc1cc(/C=C2\SC(c3ccc(C)cc3)=NC2=O)cc(OC)c1O | inconclusive: 50.1 µM [inhibitor, partial curve] |
| CCOc1cc(CO)cc(Br)c1OCC(=O)O | inconclusive: 79.4 µM [inhibitor, partial curve] |
| COc1ccc(-c2nc3ccc([N+](=O)[O-])cc3[nH]2)cc1 | inconclusive: 25.1 µM [inhibitor, single point] |
| CC(=O)Oc1ccc(OC(C)=O)c2c1C1C=CC2CC1 | inconclusive: 12.6 µM [inhibitor, partial curve] |
| CC(Cc1ccccc1)N1C(=O)c2cccc([N+](=O)[O-])c2C1=O (centres undefined) | inactive |
| O=C(COC(=O)c1cccs1)NCc1cccs1 | inconclusive: 89.1 µM [inhibitor, single point] |
| O=C(Nc1nc2ccccc2c(=O)s1)c1ccco1 | inconclusive: 22.4 µM [inhibitor, partial curve] |
| NC(=O)c1cccnc1Oc1ccccc1 | inactive |
| CC(/C=C/c1ccco1)=N\NC(=O)c1cc(Cl)ccc1O | inconclusive: 35.5 µM [inhibitor, partial curve] |
| O=C(NN(C(=O)c1ccccc1)c1ccccc1)c1ccccc1 | inconclusive: 56.2 µM [inhibitor, partial curve] |
| Cc1cccc2c1NC(=O)C2=O | active: 28.2 µM |
| CC(/C=C1\SC(=Nc2cccnc2)NC1=O)=C\c1ccccc1 | inconclusive: 10 µM [inhibitor, full curve] |
| Cc1ccc(OCC(=O)c2c(N)n(C)c(=O)n(C)c2=O)c([N+](=O)[O-])n1 | active: 44.7 µM |
| C/C(=N/OC(=O)c1ccc(C(F)(F)F)cc1)c1oc(C)nc1C | inconclusive: 3.55 µM [inhibitor, full curve, poor fit] |

Looked up above:
Entry for CC(=O)Oc1ccc(OC(C)=O)c2c1C1C=CC2CC1 under Potency: inconclusive: 12.6 µM [inhibitor, partial curve]
Entry for Cc1cccc2c1NC(=O)C2=O under Potency: active: 28.2 µM
